Measurements published in the supplement of paper PMC8728848.
The list shows a part of the results.

Assays:
Experiment in all cases: glycan array binding signal (z-score within array); higher = stronger binding
Details in all cases: glycan notation: IUPAC condensed, linker removed
Fuc(a1-2)Gal = target: Fuc(a1-2)Gal
Outline: (§1)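 The binding signal is a Z-score computed within each array and averaged over linkers. Arrays of the same protein sequence at different concentrations or buffers were also averaged together. Data originate from 3228 arrays in the Consortium for Functional Glycomics database, kept only where the protein sequence was available.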

Fuc(a1-2)Gal(b1-3)GalNAc = target: Fuc(a1-2)Gal(b1-3)GalNAc
Outline: as §1

[1] = target: Fuc(a1-2)Gal(b1-3)GalNAc(a1-3)[Fuc(a1-2)]Gal(b1-4)Glc
Outline: as §1

[2] = target: Fuc(a1-2)Gal(b1-3)GalNAc(a1-3)[Fuc(a1-2)]Gal(b1-4)GlcNAc
Outline: as §1

[3] = target: Fuc(a1-2)Gal(b1-3)GalNAc(b1-3)Gal
Outline: as §1

[4] = target: Fuc(a1-2)Gal(b1-3)GalNAc(b1-3)Gal(a1-4)Gal(b1-4)Glc
Outline: as §1

[5] = target: Fuc(a1-2)Gal(b1-3)GalNAc(b1-4)[Neu5Ac(a2-3)]Gal(b1-4)Glc
Outline: as §1

Fuc(a1-2)Gal(b1-3)GlcNAc = target: Fuc(a1-2)Gal(b1-3)GlcNAc
Outline: as §1

[6] = target: Fuc(a1-2)Gal(b1-3)GlcNAc(b1-2)Man(a1-3)[Fuc(a1-2)Gal(b1-3)GlcNAc(b1-2)Man(a1-6)]Man(b1-4)GlcNAc(b1-4)GlcNAc
Outline: as §1

[7] = target: Fuc(a1-2)Gal(b1-3)GlcNAc(b1-2)Man(a1-3)[Fuc(a1-2)Gal(b1-3)GlcNAc(b1-2)Man(a1-6)]Man(b1-4)GlcNAc(b1-4)[Fuc(a1-6)]GlcNAc
Outline: as §1

[8] = target: Fuc(a1-2)Gal(b1-3)GlcNAc(b1-3)Gal(b1-4)Glc
Outline: as §1

[9] = target: Fuc(a1-2)Gal(b1-3)GlcNAc(b1-3)GalNAc
Outline: as §1

[10] = target: Fuc(a1-2)Gal(b1-3)GlcNAc(b1-3)[Fuc(a1-2)Gal(b1-3)GlcNAc(b1-6)]GalNAc
Outline: as §1

[11] = target: Fuc(a1-2)Gal(b1-3)GlcNAc(b1-3)[Gal(b1-4)GlcNAc(b1-6)]Gal(b1-4)Glc
Outline: as §1

[12] = target: Fuc(a1-2)Gal(b1-3)GlcNAc(b1-3)[Neu5Ac(a2-6)Gal(b1-4)GlcNAc(b1-6)]Gal(b1-4)Glc
Outline: as §1

[13] = target: Fuc(a1-2)Gal(b1-3)GlcNAc6S
Outline: as §1

[14] = target: Fuc(a1-2)Gal(b1-3)[Fuc(a1-4)]GlcNAc
Outline: as §1

[15] = target: Fuc(a1-2)Gal(b1-3)[Fuc(a1-4)]GlcNAc(b1-2)Man(a1-3)[Fuc(a1-2)Gal(b1-3)[Fuc(a1-4)]GlcNAc(b1-2)Man(a1-3)]Man(b1-4)GlcNAc(b1-4)GlcNAc
Outline: as §1

[16] = target: Fuc(a1-2)Gal(b1-3)[Fuc(a1-4)]GlcNAc(b1-2)Man(a1-3)[Fuc(a1-2)Gal(b1-3)[Fuc(a1-4)]GlcNAc(b1-2)Man(a1-6)]Man(b1-4)GlcNAc(b1-4)[Fuc(a1-6)]GlcNAc(b1-4)[Fuc(a1-6)]GlcNAc
Outline: as §1

[17] = target: Fuc(a1-2)Gal(b1-3)[Fuc(a1-4)]GlcNAc(b1-3)[Fuc(a1-3)[Gal(b1-4)]GlcNAc(b1-6)]Gal(b1-4)Glc
Outline: as §1

[18] = target: Fuc(a1-2)Gal(b1-3)[Fuc(a1-4)]GlcNAc(b1-3)[Gal(b1-4)GlcNAc(b1-6)]Gal(b1-4)Glc
Outline: as §1

Fuc(a1-2)Gal(b1-4)Glc = target: Fuc(a1-2)Gal(b1-4)Glc
Outline: as §1

Fuc(a1-2)Gal(b1-4)Glc6S = target: Fuc(a1-2)Gal(b1-4)Glc6S
Outline: as §1

Fuc(a1-2)Gal(b1-4)GlcNAc = target: Fuc(a1-2)Gal(b1-4)GlcNAc
Outline: as §1

[19] = target: Fuc(a1-2)Gal(b1-4)GlcNAc(b1-2)Man
Outline: as §1

[20] = target: Fuc(a1-2)Gal(b1-4)GlcNAc(b1-2)Man(a1-3)[Fuc(a1-2)Gal(b1-4)GlcNAc(b1-2)Man(a1-6)]Man(b1-4)GlcNAc(b1-4)GlcNAc
Outline: as §1

[21] = target: Fuc(a1-2)Gal(b1-4)GlcNAc(b1-2)Man(a1-3)[Fuc(a1-2)Gal(b1-4)GlcNAc(b1-2)Man(a1-6)]Man(b1-4)GlcNAc(b1-4)[Fuc(a1-6)]GlcNAc
Outline: as §1

[22] = target: Fuc(a1-2)Gal(b1-4)GlcNAc(b1-2)[Fuc(a1-2)Gal(b1-4)GlcNAc(b1-4)]Man(a1-3)[Fuc(a1-2)Gal(b1-4)GlcNAc(b1-2)Man(a1-6)]Man(b1-4)GlcNAc(b1-4)GlcNAc
Outline: as §1

[23] = target: Fuc(a1-2)Gal(b1-4)GlcNAc(b1-3)Gal(b1-4)GlcNAc
Outline: as §1

[24] = target: Fuc(a1-2)Gal(b1-4)GlcNAc(b1-3)Gal(b1-4)GlcNAc(b1-2)Man(a1-3)[Fuc(a1-2)Gal(b1-4)GlcNAc(b1-3)Gal(b1-4)GlcNAc(b1-2)Man(a1-6)]Man(b1-4)GlcNAc(b1-4)GlcNAc
Outline: as §1

B1: SJCP1084 (Schistosoma japonicum) (protein)
chain: MRIINLVIISTALLLINLLQTKSQANGEDTKNGTPDDPGLTKSTELKVEVQALLKDKKTNMRVKWNENLLDNTKPEYHNLRDEACELLLQIVRSVVPLSQDDGECKDVTFTKYVVGTKDGAVNVKLTITFKDSVAINQKPMDLKLKLENDFKNLQSESTLKATKPTFTVKVEKRLIPISKPQTTPPTTAKNDASKENVGDIGGEDSTVPTAAPATAASANEEKDEGDKDNKDSQHPNVLTSNVNDRNLIIALVALMILAIGVALTAAVKQR
glycan array binding signal (z-score) (Fuc(a1-2)Gal): 0.098
glycan array binding signal (z-score) (Fuc(a1-2)Gal(b1-3)GalNAc): 0.661
glycan array binding signal (z-score) [1]: -0.225
glycan array binding signal (z-score) [2]: -1.08
glycan array binding signal (z-score) [3]: 0.716
glycan array binding signal (z-score) [4]: 0.9
glycan array binding signal (z-score) [5]: 0.189
glycan array binding signal (z-score) (Fuc(a1-2)Gal(b1-3)GlcNAc): 0.181
glycan array binding signal (z-score) [6]: -0.858
glycan array binding signal (z-score) [7]: 0.481
glycan array binding signal (z-score) [8]: -0.717
glycan array binding signal (z-score) [9]: 0.203
glycan array binding signal (z-score) [10]: -0.542
glycan array binding signal (z-score) [11]: -0.827
glycan array binding signal (z-score) [12]: -0.608
glycan array binding signal (z-score) [13]: -0.713
glycan array binding signal (z-score) [14]: 0.425
glycan array binding signal (z-score) [15]: 0.697
glycan array binding signal (z-score) [16]: -0.159
glycan array binding signal (z-score) [17]: -0.831
glycan array binding signal (z-score) [18]: 0.951
glycan array binding signal (z-score) (Fuc(a1-2)Gal(b1-4)Glc): 0.115
glycan array binding signal (z-score) (Fuc(a1-2)Gal(b1-4)Glc6S): -0.935
glycan array binding signal (z-score) (Fuc(a1-2)Gal(b1-4)GlcNAc): 2.5
glycan array binding signal (z-score) [19]: 1.24
glycan array binding signal (z-score) [20]: 0.358
glycan array binding signal (z-score) [21]: 0.508
glycan array binding signal (z-score) [22]: 1.04
glycan array binding signal (z-score) [23]: -1.18
glycan array binding signal (z-score) [24]: 4.99
